According to patent publication US9381260B2, “Hypoxia inducible factor-1 pathway inhibitors and uses as anticancer and imaging agents” (EMORY UNIVERSITY, priority 2011, dated 2016):

test system: HIF-1 transcriptional activity; assay: HIF-inducible luciferase reporter assay in LN229-V6R cells under hypoxia; type: cell-based, human; settings: rank among 13 compounds, 1 = lowest remaining activity
Experimental: Results are plotted as percent of luciferase activity found in extracts of untreated cells used as controls. (A) Luciferase activity in extracts of LN229-V6R cells, which contain a HIF-inducible luciferase reporter gene. The cells were grown under hypoxia to activate HIF. (B) Luciferase activity in extracts of LN229-Lux cells, which contain a constitutively expressed luciferase reporter gene. Results shown are from cells grown under normoxia; similar results were obtained under hypoxia.
The effects of the 12 heteroarylsulfonamides on HIF transcriptional activity under hypoxia were measured by determining the luciferase activity present in LN229-V6R cells, which contain a stably integrated hypoxia/HIF inducible luciferase reporter gene. As a control for the absence of inhibition on luciferase enzyme per se, we also tested 1 and five heteroarylsulfonamides in LN229-Lux cells that contain a constitutive luciferase reporter gene driven by a retroviral LTR promoter. An Hsp90 inhibitor, 17-DMAG, and 1 were used as positive controls. […] The heteroarylsulfonamides decreased HIF-1 activity in a dose-dependent fashion with IC50 values below (6a, 6b, 6d-6f, 6h, 6i, 6l) or close to 5 μM (6c, 6g, 6j, 6k) (FIG. 2).

SMILES	remaining HIF-1 activity at 2.5 μM, rank
COc1ccc(S(=O)(=O)N(Cc2ccc3c(c2)C=CC(C)(C)O3)c2ccccc2)cc1OC [Compound 1, 3,4-Dimethoxy-N-[(2,2-dimethyl-2H-chromene-6-yl)methyl]-N-phenylbenzenesulfonamide, reference compound]	1
CC(C)N(Cc1ccc2c(c1)C=CC(C)(C)O2)S(=O)(=O)c1ccccn1 [Compound 6a, N-[(2,2-Dimethyl-2H-chromen-6-yl)methyl]-N-(propan-2-yl)pyridine-2-sulfonamide]	5
CC1(C)C=Cc2cc(CN(C3CC3)S(=O)(=O)c3ccccn3)ccc2O1 [Compound 6b, N-Cyclopropyl-N-[(2,2-dimethyl-2H-chromen-6-yl)methyl]pyridine-2-sulfonamide]	10
CC(C)CN(Cc1ccc2c(c1)C=CC(C)(C)O2)S(=O)(=O)c1ccccn1 [Compound 6c, N-[(2,2-Dimethyl-2H-chromen-6-yl)methyl]-N-(2-methylpropyl)pyridine-2-sulfonamide]	13
CC1(C)C=Cc2cc(CN(CC3CC3)S(=O)(=O)c3ccccn3)ccc2O1 [Compound 6d, N-(Cyclopropylmethyl)-N-[(2,2-dimethyl-2H-chromen-6-yl)methyl]pyridine-2-sulfonamide]	3
CC1(C)C=Cc2cc(CN(C3CCC3)S(=O)(=O)c3ccccn3)ccc2O1 [Compound 6e, N-(Cyclobutyl)-N-[(2,2-dimethyl-2H-chromen-6-yl)methyl]pyridine-2-sulfonamide]	4
CC1(C)C=Cc2cc(CN(C3CCCC3)S(=O)(=O)c3ccccn3)ccc2O1 [Compound 6f, N-(Cyclopentyl)-N-[(2,2-dimethyl-2H-chromen-6-yl)methyl]pyridine-2-sulfonamide]	7
COc1cc(CN(C(C)C)S(=O)(=O)c2ccccn2)cc2c1OC(C)(C)C=C2 [Compound 6g]	8
CC(C)CN(Cc1ccc2c(c1)C=CC(C)(C)O2)S(=O)(=O)c1ccncc1 [Compound 6i, N-[(2,2-Dimethyl-2H-chromen-6-yl)methyl]-N-(2-methylpropyl)pyridine-4-sulfonamide]	9
CC(C)CN(Cc1ccc2c(c1)C=CC(C)(C)O2)S(=O)(=O)c1nccn1C [Compound 6j, N-[(2,2-Dimethyl-2H-chromen-6-yl)methyl]-N-(2-methylpropyl)-1-methyl-1H-imidazole-2-sulfonamide]	11
CC(C)CN(Cc1ccc2c(c1)C=CC(C)(C)O2)S(=O)(=O)c1nccs1 [Compound 6k, N-[(2,2-Dimethyl-2H-chromen-6-yl)methyl]-N-(2-methylpropyl)-1,3-thiazole-2-sulfonamide]	12
